Results as given in patent US20120094979A1, “THIAZOLE OR THIADIZALOE DERIVATIVES FOR USE AS SPHINGOSINE 1-PHOSPHATE 1 (S1P1) RECEPTOR AGONISTS” (Glaxo Wellcome House, priority 2009, published 2012).
Where a name gives a salt, the structure may show the parent alone. Some entries share one result that the patent states for a list of compounds.

By UniProt entry, the sequences of proteins in these tests, tags left out. Where a name states a change or a piece, a line headed by the entry shows the natural chain unless it says otherwise.
UniProt P21453, whole entry: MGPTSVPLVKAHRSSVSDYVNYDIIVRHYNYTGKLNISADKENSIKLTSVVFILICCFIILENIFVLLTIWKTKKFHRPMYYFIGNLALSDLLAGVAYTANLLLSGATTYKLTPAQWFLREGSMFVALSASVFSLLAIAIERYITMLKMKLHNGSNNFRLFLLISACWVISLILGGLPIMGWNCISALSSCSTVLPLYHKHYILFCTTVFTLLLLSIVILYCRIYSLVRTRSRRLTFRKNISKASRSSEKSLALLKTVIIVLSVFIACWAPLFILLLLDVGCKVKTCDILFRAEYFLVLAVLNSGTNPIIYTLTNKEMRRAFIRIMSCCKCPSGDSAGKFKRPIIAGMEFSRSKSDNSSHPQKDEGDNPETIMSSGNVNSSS
UniProt Q99500: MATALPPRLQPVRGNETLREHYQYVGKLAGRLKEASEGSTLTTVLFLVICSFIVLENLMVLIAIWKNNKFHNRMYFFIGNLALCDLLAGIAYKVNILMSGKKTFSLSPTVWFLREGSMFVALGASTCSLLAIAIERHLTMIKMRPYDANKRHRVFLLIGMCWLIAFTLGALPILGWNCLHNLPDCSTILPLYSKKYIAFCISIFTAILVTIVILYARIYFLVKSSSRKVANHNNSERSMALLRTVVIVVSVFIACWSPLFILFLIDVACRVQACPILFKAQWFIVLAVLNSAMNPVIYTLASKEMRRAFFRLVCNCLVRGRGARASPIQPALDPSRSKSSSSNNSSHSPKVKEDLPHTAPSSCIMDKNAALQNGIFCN

What was measured:
[1] = biological target: T1, S1P1 expressing RH7777 membranes (Homo sapiens, UniProt P21453); assay: S1P1 GTPγS assay; format: biochemical; conditions: [35S]-GTPγS, agonist
T1 construct: expressed in transfected cells; host or cells: RH7777 cells (membranes)

[2] = biological target: T2, S1P3 expressing RBL membranes (Homo sapiens, UniProt Q99500); assay: S1P3 GTPγS assay; format: biochemical; conditions: [35S]-GTPγS, agonist
T2 construct: expressed in transfected cells; host or cells: RBL cells (membranes)

[3] = biological target: T3, human Endothelial Differentiation Gene 1 (EDG1) (Homo sapiens, UniProt P21453); assay: S1P1 Tango assay, 384 well format; format: cell-based; conditions: EDG1-bla/U2OS cells, beta-lactamase reporter, agonist
T3 construct: TEV protease site; Gal4-VP16 transcription factor (printed Ga14-VP16); expressed in transfected cells; host or cells: EDG1-bla/U2OS (Tango GPCR-bla U2OS parental line), stably integrated

[4] = biological target: T4, human Endothelial Differentiation G-protein Coupled Receptor 3 (EDG3) (Homo sapiens, UniProt Q99500); assay: S1P3 GeneBlazer assay; format: cell-based; conditions: EDG3-Ga15-NFAT-bla HEK 293T cells, beta-lactamase reporter, agonist
T4 construct: expressed in transfected cells; host or cells: GeneBLAzer EDG3-Ga15-NFAT-bla HEK 293T cells

Row | SMILES | pEC50 [1] | pEC50 [2] | pEC50 [3] | pEC50 [4]
1 | Cc1c(-c2nnc(-c3ccc(OC(C)C)c(C#N)c3)s2)ccc2c1CCNC2.Cl [Example 8, 2-[(1-Methylethyl)oxy]-[5-(5-methyl-1,2,3,4-tetrahydro-6-isoquinolinyl)-1,3,4-thiadiazol-2-yl]benzonitrile hydrochloride] | > 5 | < 4.5 |  | 
2 | CC(C)Oc1ccc(-c2nnc(-c3ccc4c(c3)CNC4)s2)cc1Cl [Example 13, 5-(5-{3-Chloro-4-[(1-methylethyl)oxy]phenyl}-1,3,4-thiadiazol-2-yl)-2,3-dihydro-1H-isoindole trifluoroacetic acid salt] | > 5 | < 4.5 |  | 
3 | CC(C)Oc1ccc(-c2ncc(-c3ccc4c(c3)CCNCC4)s2)cc1Cl.Cl [Example 1, 7-(2-{3-Chloro-4-[(1-methylethyl)oxy]phenyl}-1,3-thiazol-5-yl)-2,3,4,5-tetrahydro-1H-3-benzazepine hydrochloride] | > 5 | < 4.5 |  | 
4 | CCc1c(-c2nnc(-c3ccc(OC(C)C)c(Cl)c3)s2)ccc2c1CCN(CCC(=O)O)C2 [Example 17, 3-[6-(5-{3-chloro-4-[(1-methylethyl)oxy]phenyl}-1,3,4-thiadiazol-2-yl)-5-ethyl-3,4-dihydro-2(1H)-isoquinolinyl]propanoic acid] |  |  | ≥ 9 | < 5
5 | CCc1c(-c2cnc(-c3ccc(OC(C)C)c(C#N)c3)s2)ccc2c1CCN(CCCC(=O)O)C2 [Example 16, 4-[6-(2-{3-cyano-4-[(1-methylethyl)oxy]phenyl}-1,3-thiazol-5-yl)-5-ethyl-3,4-dihydro-2(1H)-isoquinolinyl]butanoic acid] |  |  | ≥ 9 | < 5
6 | CC(C)Oc1ccc(-c2nnc(-c3ccc4c(c3)CN(CCC(=O)O)C4)s2)cc1Cl [Example 14, 3-[5-(5-{3-Chloro-4-[(1-methylethyl)oxy]phenyl}-1,3,4-thiadiazol-2-yl)-1,3-dihydro-2H-isoindol-2-yl]propanoic acid] | > 5 | < 4.5 |  | 
7 | CC(C)Oc1ccc(-c2nnc(-c3ccc4c(c3)CCN(CCCC(=O)O)CC4)s2)cc1C#N.Cl [Example 7, 4-[7-(5-{3-Cyano-4-[(1-methylethyl)oxy]phenyl}-1,3,4-thiadiazol-2-yl)-1,2,4,5-tetrahydro-3H-3-benzazepin-3-yl]butanoic acid hydrochloride] | > 5 | < 4.5 |  | 
8 | CCc1c(-c2nnc(-c3ccc(OC(C)C)c(Cl)c3)s2)ccc2c1CCN(CCCC(=O)O)C2 [Example 18, 4-[6-(5-{3-chloro-4-[(1-methylethyl)oxy]phenyl}-1,3,4-thiadiazol-2-yl)-5-ethyl-3,4-dihydro-2(1H)-isoquinolinyl]butanoic acid] |  |  | ≥ 9 | < 5
9 | CC(C)Oc1ccc(-c2ncc(-c3ccc4c(c3)CCN(CCCC(=O)O)CC4)s2)cc1Cl [Example 3, 4-[7-(2-{3-Chloro-4-[(1-methylethyl)oxy]phenyl}-1,3-thiazol-5-yl)-1,2,4,5-tetrahydro-3H-3-benzazepin-3-yl]butanoic acid] | > 5 | < 4.5 |  | 
10 | CCc1c(-c2cnc(-c3ccc(OC(C)C)c(C#N)c3)s2)ccc2c1CCN(CCC(=O)O)C2 [Example 15, 3-[6-(2-{3-cyano-4-[(1-methylethyl)oxy]phenyl}-1,3-thiazol-5-yl)-5-ethyl-3,4-dihydro-2(1H)-isoquinolinyl]propanoic acid] |  |  | ≥ 9 | < 5
11 | CC(C)Oc1ccc(-c2nnc(-c3ccc4c(c3)CCNCC4)s2)cc1Cl.Cl [Example 5, 7-(5-{3-Chloro-4-[(1-methylethyl)oxy]phenyl}-1,3,4-thiadiazol-2-yl)-2,3,4,5-tetrahydro-1H-3-benzazepine hydrochloride] | > 5 | < 4.5 |  | 
12 | Cc1c(-c2nnc(-c3ccc(OC(C)C)c(C#N)c3)s2)ccc2c1CCN(CCCC(=O)[O-])C2.[Na+] [Example 10, 4-[6-(5-{3-Cyano-4-[(1-methylethyl)oxy]phenyl}-1,3,4-thiadiazol-2-yl)-5-methyl-3,4-dihydro-2(1H)-isoquinolinyl]butanoate sodium salt] | > 5 | < 4.5 |  | 
13 | CC(C)Oc1ccc(-c2nnc(-c3ccc4c(c3)CCNC4)s2)cc1C#N [Example 11, 2-[(1-Methylethyl)oxy]-5-[5-(1,2,3,4-tetrahydro-6-isoquinolinyl)-1,3,4-thiadiazol-2-yl]benzonitrile] | > 5 | < 4.5 |  | 
14 | CCc1c(-c2nnc(-c3ccc(CC(C)C)c(C#N)c3)s2)ccc2c1CCN(CCC(=O)O)C2 [Example 19, 3-[6-{5-[3-cyano-4-(2-methylpropyl)phenyl]-1,3,4-thiadiazol-2-yl}-5-ethyl-3,4-dihydro-2(1H)-isoquinolinyl]propanoic acid] |  |  | ≥ 9 | < 5
15 | Cc1c(-c2nnc(-c3ccc(OC(C)C)c(C#N)c3)s2)ccc2c1CCN(CCC(=O)[O-])C2.[Na+] [Example 9, 3-[6-(5-{3-Cyano-4-[(1-methylethyl)oxy]phenyl}-1,3,4-thiadiazol-2-yl)-5-methyl-3,4-dihydro-2(1H)-isoquinolinyl]propanoic acid sodium salt] | > 5 | < 4.5 |  | 
16 | CC(C)Oc1ccc(-c2nnc(-c3cccc4c3CCNC4)s2)cc1C#N.Cl [Example 12, 2-[(1-Methylethyl)oxy]-5-[5-(1,2,3,4-tetrahydro-5-isoquinolinyl)-1,3,4-thiadiazol-2-yl]benzonitrile hydrochloride] | > 5 | < 4.5 |  | 
17 | CC(C)Oc1ccc(-c2cnc(-c3ccc4c(c3)CCN(CCCC(=O)O)CC4)s2)cc1Cl [Example 4, 4-[7-(5-{3-Chloro-4-[(1-methylethyl)oxy]phenyl}-1,3-thiazol-2-yl)-1,2,4,5-tetrahydro-3H-3-benzazepin-3-yl]butanoic acid] | > 5 | < 4.5 |  | 
18 | CC(C)Oc1ccc(-c2nnc(-c3ccc4c(c3)CCNCC4)s2)cc1C#N [Example 6, 2-[(1-Methylethyl)oxy]-[5-(2,3,4,5-tetrahydro-1H-3-benzazepin-7-yl)-1,3,4-thiadiazol-2-yl]benzonitrile trifluoroacetic acid salt] | > 5 | < 4.5 |  | 
19 | CC(C)Oc1ccc(-c2cnc(-c3ccc4c(c3)CCNCC4)s2)cc1Cl.Cl [Example 2, 7-(5-{3-Chloro-4-[(1-methylethyl)oxy]phenyl}-1,3-thiazol-2-yl)-2,3,4,5-tetrahydro-1 H-3-benzazepine hydrochloride] | > 5 | < 4.5 |  | 
